Assay results from patent US9156831B2, “Chemical compounds” (ASTRAZENECA AB, priority 2013, dated 2015).
Like-named read-outs stand apart in the source and are kept apart here.

Test system: collection of 209 cancer cell lines
[1] = KRAS AND PIK3CA MUT (hotspot mutations)
[2] = PIK3CA MUT and KRAS WT (hotspot mutations)

CCn1nc(C2CCN(C(=O)CCO)CC2)nc1-c1cnc(N)c(-c2nnc(C(C)(C)C)o2)n1 [Example 3, 1-(4-(5-(5-amino-6-(5-tert-butyl-1,3,4-oxadiazol-2-yl)pyrazin-2-yl)-1-ethyl-1H-1,2,4-triazol-3-yl)piperidin-1-yl)-3-hydroxypropan-1-one]
number of cell lines, Response Resistant [1]: 7
number of cell lines, Response Sensitive [1]: 2
number of cell lines, Response Resistant [2]: 6
number of cell lines, Response Sensitive [2]: 13
number of cell lines, Response Resistant (PIK3CA MUT cell lines): 17
number of cell lines, Response Sensitive (PIK3CA MUT cell lines): 15
number of cell lines, Response Resistant (PIK3CA WT cell lines): 165
number of cell lines, Response Sensitive (PIK3CA WT cell lines): 12
cell lines sensitive (PIK3CA WT cell lines (12 of 177)): 7.7%
cell lines resistant (PIK3CA mutant with coexisting KRAS mutations (7 of 9)): 77.8%
cell lines resistant (activating PIK3CA mutation and wild-type KRAS (6 of 19)): 31.6%
cell lines sensitive (cell lines mutant for PIK3CA (15 of 32)): 46.9%
